Experimental data reported in PubChem BioAssay AID1671190 (National Center for Advancing Translational Sciences (NCATS), 2021).
Values joined by “and” are separate entries in the source; they are usually repeats but may differ in a detail not shown here. Equal values may be shown once. Out of some 580,000 compounds screened, about 6,100 (1.1%) were called active. The shares of active, inactive and inconclusive entries below differ from those in the screen. The call rests on the fitted dose curve; in most records, active means well fitted inhibition curve with a large enough effect; inconclusive means small, poorly fitted or top-dose-only effect, or another doubt; inactive means no such curve, though single readings can be large or run the other way. Potencies beside an inconclusive call are fits to weak or partial responses and may not hold up.

Protein sequences, listed by entry. Tags and fused reporters are not part of them. Lines headed by an entry give the natural chain unless they say otherwise; changes in a name come on top.
UniProt P18054: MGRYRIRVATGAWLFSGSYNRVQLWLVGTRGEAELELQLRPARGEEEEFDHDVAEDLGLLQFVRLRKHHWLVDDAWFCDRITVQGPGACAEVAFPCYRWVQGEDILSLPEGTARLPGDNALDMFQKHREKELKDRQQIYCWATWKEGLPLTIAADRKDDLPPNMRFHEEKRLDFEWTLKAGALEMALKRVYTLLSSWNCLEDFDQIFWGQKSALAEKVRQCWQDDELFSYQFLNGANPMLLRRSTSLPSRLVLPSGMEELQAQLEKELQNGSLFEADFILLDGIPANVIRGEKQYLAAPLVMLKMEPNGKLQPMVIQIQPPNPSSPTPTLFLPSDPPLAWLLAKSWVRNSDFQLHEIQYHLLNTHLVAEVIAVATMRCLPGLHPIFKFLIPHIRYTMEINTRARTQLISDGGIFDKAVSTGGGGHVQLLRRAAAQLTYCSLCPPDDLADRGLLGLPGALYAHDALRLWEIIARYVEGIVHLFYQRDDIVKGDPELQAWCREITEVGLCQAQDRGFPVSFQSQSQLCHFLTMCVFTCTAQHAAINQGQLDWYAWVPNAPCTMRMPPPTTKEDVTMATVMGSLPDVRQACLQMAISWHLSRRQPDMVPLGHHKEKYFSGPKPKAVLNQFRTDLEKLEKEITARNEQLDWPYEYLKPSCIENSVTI

molecular target: Polyunsaturated fatty acid lipoxygenase ALOX12 (Homo sapiens) (UniProt P18054); test: Primary qHTS assay for inhibitors of human arachidonate 12S-lipoxygenase (ALOX12): Round 2; details: purified 12hLO, xylenol orange hydroperoxide absorbance; activity change, negative = inhibition: at 108 µM (top of the series) unless noted
Summary of the method: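 Purified human 12hLO at 150 nM in 25 mM Hepes, 0.01% Triton X-100, pH 7.0, preincubated 15 min at room temperature with compound. Reaction started with 40 uM arachidonic acid, 30 min at room temperature. Hydroperoxide measured by Fe-xylenol orange, 573/405 nm absorbance ratio.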
On the % scale 0 is the no-effect control and ±100 the full control effect; potency means the concentration at half of the fitted maximal effect.

Structure (SMILES)	Potency	activity change, negative = inhibition
COc1ccc(CNc2ncnc3c2CN(c2ccc(C)cc2)C(=O)CN3C)cc1	inconclusive: 89.1 µM [inhibitor, partial curve, poor fit]	–
Cc1ccc2cc(CN(Cc3ccco3)C(=O)C3CCCCC3)c(=O)[nH]c2c1C	–	inactive: 133%
C=CCOc1nc2c(c(=O)n(Cc3ccc(Cl)c(Cl)c3)c(=O)n2C)n1C	inconclusive: 126 µM [inhibitor, single point]	–
Cc1nn2c(c1-c1ccccc1N1CCCC1)N(C(=O)COc1ccccc1)CCC2	–	inactive: 131% [at 176 µM]
Cc1cc2oc(C(=O)Nc3ccc(S(=O)(=O)N4CCCC(C)C4)cc3)cc(=O)c2cc1C (centres undefined)	–	inactive: -23%
CCC(=O)Nc1ccc(/C=C(\C(C)=O)C(=O)c2ccccc2)cc1	inconclusive: 25.1 µM [inhibitor, partial curve, poor fit]	–
CCN(CC)S(=O)(=O)c1ccc(C(=O)NC(=S)N(CCO)Cc2ccccc2)cc1	inconclusive: 44.7 µM [inhibitor, partial curve, poor fit]	–
CCOC(=O)c1cc(-c2ccccn2)nc2c1c(=O)[nH]c(=O)n2CC(C)C	inconclusive: 100 µM [inhibitor, partial curve, poor fit]	–
CCNC(=O)NC(=O)COC(=O)c1cc(C)nc2ccccc12	inconclusive: 141 µM [inhibitor, single point]	–
Cc1ccc2nc(CO[C@H]3CN(Cc4ccccc4)C[C@H]3F)[nH]c2c1	–	inactive: 84.9% [at 176 µM]
COc1cc(OC)cc(C(=O)N2CCCC3(C2)NC(=O)N(Cc2ccc(C)cc2)C3=O)c1 (centres undefined)	inconclusive: 15.8 µM [inhibitor, partial curve, poor fit]	–
Cc1n[nH]c(=O)c2c(NC(=O)CSc3nnc(C4CC4)n3-c3ccccc3)oc(C)c12	inconclusive: 11.2 µM [inhibitor, full curve, poor fit]	–
C/C=C/c1ccc(OCC(=O)OCC(=O)c2ccc3c(c2)OCO3)c(OC)c1	–	inactive: -42.4%
Cn1cc(CN2CCCC(CO)(Cc3cccc(Cl)c3)C2)cn1 (centres undefined)	inconclusive: 1.41 µM [inhibitor, full curve, poor fit]	–
O=C(O)c1ccc(-c2ccc(/C=C3\NC(=O)N(Cc4ccc(Cl)cc4)C3=O)o2)cc1	inconclusive: 28.2 µM [inhibitor, partial curve]	–
O=C1NCc2ccccc2CC12CCCN(Cc1c(Cl)cncc1Cl)C2 (centres undefined)	inconclusive: 10 µM [inhibitor, partial curve, poor fit]	–
c1csc(CNc2nc(NCC3CCCCC3)c3sccc3n2)c1	inconclusive: 50.1 µM [inhibitor, partial curve, poor fit]	–
CCN(C(=O)c1c(C)noc1C)c1c(N)n(Cc2ccccc2)c(=O)[nH]c1=O	inconclusive: 126 µM [inhibitor, single point]	–
CCOc1cc(/C=C2\NC(=O)NC2=O)c(Br)cc1O	inconclusive: 100 µM [inhibitor, partial curve, poor fit] and inconclusive: 50.1 µM [inhibitor, partial curve, poor fit]	–
O=C(CSc1ccc2nnc(-c3ccc(Cl)cc3)n2n1)N1CCCc2ccccc21	–	inactive: -13.7%
O=C(O)CCCCCNc1nc2ncn(Cc3ccccc3)c2c(=O)[nH]1	inconclusive: 25.1 µM [inhibitor, full curve, poor fit]	–
Cc1ccc(C(=O)CC(C(=O)O)n2cncn2)cc1 (centres undefined)	inconclusive: 25.1 µM [inhibitor, partial curve, poor fit]	–

A stretch of the results above, as a working copy:
Structure (SMILES)	Potency	activity change, negative = inhibition
Cc1ccc2nc(CO[C@H]3CN(Cc4ccccc4)C[C@H]3F)[nH]c2c1	–	inactive: 84.9% [at 176 µM]
COc1cc(OC)cc(C(=O)N2CCCC3(C2)NC(=O)N(Cc2ccc(C)cc2)C3=O)c1 (centres undefined)	inconclusive: 15.8 µM [inhibitor, partial curve, poor fit]	–
Cc1n[nH]c(=O)c2c(NC(=O)CSc3nnc(C4CC4)n3-c3ccccc3)oc(C)c12	inconclusive: 11.2 µM [inhibitor, full curve, poor fit]	–
C/C=C/c1ccc(OCC(=O)OCC(=O)c2ccc3c(c2)OCO3)c(OC)c1	–	inactive: -42.4%

Next part:

Structure (SMILES)	Potency	activity change, negative = inhibition
Cn1c([C@H]2CCN(C(=O)COCC(=O)O)C2)nc2ccccc21	inconclusive: 25.1 µM [inhibitor, full curve, poor fit]	–
O=C(c1cccc(S(=O)(=O)N2CCN(c3ccccc3)CC2)c1)N1CCN(c2ccccc2O)CC1	inconclusive: 100 µM [inhibitor, single point]	–
COc1cccc2c1C(=O)c1c(O)c3c(c(O)c1C2=O)C[C@@](O)(C(C)=O)C[C@@H]3O[C@H]1C[C@H](N)[C@H](O)[C@H](C)O1	inactive	–
CNC(=O)N1CCC(C2CCN(C(=O)c3ccc(OC)nc3)C2)CC1 (centres undefined)	–	inactive: 6.81%
O=C(O)C(c1c[nH]c2ccc(OCc3ccccc3)cc12)N1CCN(Cc2ccncc2)CC1 (centres undefined)	–	inactive: -5.09%
Cc1nc2c(cnn2C(C)C)cc1C(=O)N(C)Cc1ccc(Cl)c(Cl)c1	–	inactive: -0.103%
Cc1ccc(C)c(S(=O)(=O)N2[C@@H]3CC[C@@H](C3)[C@H]2c2nc3c(OCC4CCOCC4)cccc3[nH]2)c1	–	inactive: 6.51%
COc1ccc(Cc2c(C)nn(-c3nc(CC(=O)Nc4ccccc4)cs3)c2C)cc1	–	inactive: 37.4%
O=C(Nc1nccs1)C1CC(=O)N(c2n[nH]c3cc(Br)ccc23)C1 (centres undefined)	inconclusive: 3.55 µM [inhibitor, full curve, poor fit]	–
C[C@H](CO)NC(=O)[C@H](C)[C@H]1C[C@]1(C)[C@H](NC(=O)OCc1ccccc1)c1ccccc1	–	inactive: 10.8%
CNC(=O)[C@@H]1C[C@@H](n2cc(CNC(=O)Nc3ccc(Cl)cc3)nn2)CN1	inconclusive: 8.91 µM [inhibitor, full curve, poor fit]	–
Cn1nc(C(=O)NCc2cccc(Cl)c2)c2ccccc2c1=O	inconclusive: 112 µM [inhibitor, single point]	–
O=C(CCc1ccccc1)NC(=S)Nc1cc(C(F)(F)F)ccc1N1CCOCC1	inconclusive: 89.1 µM [inhibitor, partial curve, poor fit]	–
COc1cc(-c2nc3oc4ccccc4c(=O)c3c(=O)n2Cc2ccco2)cc(OC)c1OC	inconclusive: 44.7 µM [inhibitor, single point]	–
COc1ccc(CNC(=O)[C@@H]2Cc3c[nH]c4cccc(c34)[C@H](CC(C)C)N2)cc1	–	inactive: 13% [at 176 µM]
O=C(Cc1ccccc1F)Nc1cc(S(=O)(=O)N2CCOCC2)ccc1N1CCOCC1	–	inactive: -15.5%
COc1ccc(OC)c(CN2C[C@H]3[C@H](C2)[S+](=O)([O-])C(C)(C)C(=O)N3CCOc2ccccc2)c1	–	inactive: -9.94%
O=C(CSc1ncnc2c1nnn2Cc1ccc(F)cc1)NCC1CCCO1 (centres undefined)	–	inactive: -13.3%
CCOC(=O)C1CCN(Cc2c(F)cccc2Cl)CC1	inconclusive: 2 µM [inhibitor, full curve, poor fit]	–
O=C(O)C1CCC(=O)N(C2CCCCC2)C1c1ccccc1Cl (centres undefined)	–	inactive: 1.54%
COC(=O)c1ccc(CN2C(=O)NC3(CCCCC3C)C2=O)o1 (centres undefined)	inconclusive: 112 µM [inhibitor, single point]	–
CCCCN(Cc1cc2cc(OC)ccc2[nH]c1=O)C(=O)c1ccco1	inconclusive: 25.1 µM [inhibitor, partial curve, poor fit]	–

Structure (SMILES)	Potency	activity change, negative = inhibition
Cc1cccc(CN2CCOCCNC(=O)[C@H]3CCCC[C@H]32)c1	inconclusive: 22.4 µM [inhibitor, single point]	–
Cc1ccc(NC(=O)CSc2ccc3nnc(-c4cccnc4)n3n2)cc1	–	inactive: 12.4%
COc1ccc(-c2nc3ccccc3c(=O)n2CCc2ccc(O)cc2)cc1	inconclusive: 1.12 µM [inhibitor, full curve]	–
CS(=O)(=O)N1CCN(c2ccc(Cl)nn2)C(=O)C1	inconclusive: 25.1 µM [inhibitor, full curve, poor fit]	–
CC1=C[C@@H](CNS(C)(=O)=O)[C@H](C(C)C)C[C@H]1Cc1nc2ccc(F)cc2[nH]1	–	inactive: 22.5% [at 176 µM]
CCC(Oc1ccc2c(c1)C(=O)CC(C)(C)O2)C(=O)NCCN1CCCCCC1 (centres undefined)	inconclusive: 2.24 µM [inhibitor, partial curve, poor fit]	–
O=S(=O)(NCC(c1ccccc1)N1CCc2ccccc21)c1ccccc1 (centres undefined)	inconclusive: 141 µM [inhibitor, partial curve, poor fit]	–
CCn1c(=N)c(C(=O)NCC2CCCO2)cc2c(=O)n3cc(C)ccc3nc21 (centres undefined)	inconclusive: 63.1 µM [inhibitor, partial curve, poor fit]	–
O=[N+]([O-])c1cc(S(=O)(=O)Nc2ccccc2)ccc1N/N=C1/CC2CC=CC12 (centres undefined)	inconclusive: 39.8 µM [inhibitor, partial curve, poor fit]	–
COCc1nc2ccccc2n1Cc1cccc(C)c1	inconclusive: 22.4 µM [inhibitor, partial curve, poor fit]	–
CC(C)CC(COCc1ccc(Cl)cc1)N1CCN(C(=O)c2cccc(C(F)(F)F)c2)CCC1=O (centres undefined)	inconclusive: 112 µM [inhibitor, partial curve, poor fit]	–
COc1cccc(-c2ocnc2C(=O)Nc2ccc(C(C)C)cc2)c1	–	inactive: -20.9%
Cc1ccc(NS(=O)(=O)c2ccccc2)c(=O)n1CC(=O)NC1CCCC1	inconclusive: 11.2 µM [inhibitor, partial curve, poor fit]	–
CCCCCc1nnc(NC(=O)C(=O)OCC)s1	inconclusive: 2.51 µM [inhibitor, full curve, poor fit]	–
Cc1ccc2oc(-c3ccc(C)c(NC(=O)COc4ccccc4)c3)nc2c1	–	inactive: -2.84%
CCCCCC1=CCC/C1=N/NC(=S)NCCOC	active: 39.8 µM	–
Fc1ccc(/C=N/NC(=S)NCc2ccccc2)cc1F	inconclusive: 8.91 µM [inhibitor, partial curve, poor fit]	–
O=C(c1ccc(Cl)c(S(=O)(=O)N2CCOCC2)c1)N1CCCCC1	inconclusive: 31.6 µM [inhibitor, single point]	–
CS(=O)(=O)N(CCc1ccccc1)CC(=O)NCc1ccncc1	inconclusive: 44.7 µM [inhibitor, partial curve, poor fit]	–
CC1(C)C/C(=N/O)C=CO1	–	inactive: -7.5%
